Assay [1] concerns the target ParB(T22C)-HT (B. subtilis) (UniProt P26497). Description: cross-linking; in vivo BMOE (0.5 mM) cysteine cross-linking of ParB-HT in B. subtilis cells on ice, HaloTag-TMR in-gel fluorescence after SDS-PAGE; also in a strain lacking eight parS sites.
Assay [2] deals with ParB(R105C, L134C)-HT (B. subtilis) (UniProt P26497). The description is as above.
The target in assay [3] is ParB(A102C, L134C)-HT (B. subtilis) (UniProt P26497). The description is as above.
For assay [4], the target named is ParB(R105C, H133C, S278C)-HT in combination with E111Q (B. subtilis) (UniProt P26497). Description: cross-linking; chromosome entrapment assay: in vivo BMOE cross-linking to covalently closed circular ParB-HT species, input and eluate from agarose beads under denaturing conditions, in-gel fluorescence.
Assay [5] has as its target ParB(A102C, H133C)-HT (B. subtilis) (UniProt P26497). Description: cross-linking; in vivo BMOE (0.5 mM) cysteine cross-linking of ParB-HT in B. subtilis cells on ice, HaloTag-TMR in-gel fluorescence after SDS-PAGE; also in a strain lacking eight parS sites.
The target in assay [6] is ParB(R105C, H133C, S278C)-HT in combination with E78Q (B. subtilis) (UniProt P26497). Nature of the assay: cross-linking; chromosome entrapment assay: in vivo BMOE cross-linking to covalently closed circular ParB-HT species, input and eluate from agarose beads under denaturing conditions, in-gel fluorescence.
The target in assay [7] is ParB(R105C, H133C, E111Q)-HT (B. subtilis) (UniProt P26497). Description: cross-linking; in vivo BMOE (0.5 mM) cysteine cross-linking of ParB-HT in B. subtilis cells on ice, HaloTag-TMR in-gel fluorescence after SDS-PAGE; also in a strain lacking eight parS sites.
Assay [8] concerns the target ParB(T22C, E78Q)-HT (B. subtilis) (UniProt P26497). The description is as above.
For assay [9], the target named is ParB(R105C, H133C)-HT (B. subtilis) (UniProt P26497). The assay is described as above.
Assay [10] concerns the target ParB(T22C, E111Q)-HT (B. subtilis) (UniProt P26497). Described as above.
In assay [11] the target is ParB(R105C, H133C, E78Q)-HT (B. subtilis) (UniProt P26497). Described as above.

Results are given in words; binding and its absence hold for the method and conditions named. Binding seen in cells or lysates may run through a third protein. Some entries that bind do so weakly or less than the wild type.

B1: ParB(T22C) (natural protein, B. subtilis, UniProt P26497 1-282, looked up)
chain: MAKGLGKGINALFNQVDLSEECVEEIKIADLRPNPYQPRKHFDDEALAELKESVLQHGILQPLIVRKSLKGYDIVAGERRFRAAKLAGLDTVPAIVRELSEALMREIALLENLQREDLSPLEEAQAYDSLLKHLDLTQEQLAKRLGKSRPHIANHLRLLTLPENIQQLIAEGTLSMGHGRTLLGLKNKNKLEPLVQKVIAEQLNVRQLEQLIQQLNQNVPRETKKKEPVKDAVLKERESYLQNYFGTTVNIKRQKKKGKIEIEFFSNEDLDRILELLSERES
notes: ParB, B. subtilis, untagged recombinant protein with a cysteine at the N-gate; source: E. coli BL21-Gold (DE3), purified (ammonium sulfate, heparin, HiTrap SP, Superdex 200)
Turning to B1, the binding entry in assay [1] is given as “binds weakly”.

B2: ParB(R105C, L134C)-HT (protein, UniProt P26497 1-282)
chain: MAKGLGKGINALFNQVDLSEETVEEIKIADLRPNPYQPRKHFDDEALAELKESVLQHGILQPLIVRKSLKGYDIVAGERRFRAAKLAGLDTVPAIVRELSEALMCEIALLENLQREDLSPLEEAQAYDSLLKHCDLTQEQLAKRLGKSRPHIANHLRLLTLPENIQQLIAEGTLSMGHGRTLLGLKNKNKLEPLVQKVIAEQLNVRQLEQLIQQLNQNVPRETKKKEPVKDAVLKERESYLQNYFGTTVNIKRQKKKGKIEIEFFSNEDLDRILELLSERES
On to B2, for which the binding result in assay [2] was “binds weakly”.

B3: ParB(A102C, L134C)-HT (protein, UniProt P26497 1-282)
chain: MAKGLGKGINALFNQVDLSEETVEEIKIADLRPNPYQPRKHFDDEALAELKESVLQHGILQPLIVRKSLKGYDIVAGERRFRAAKLAGLDTVPAIVRELSECLMREIALLENLQREDLSPLEEAQAYDSLLKHCDLTQEQLAKRLGKSRPHIANHLRLLTLPENIQQLIAEGTLSMGHGRTLLGLKNKNKLEPLVQKVIAEQLNVRQLEQLIQQLNQNVPRETKKKEPVKDAVLKERESYLQNYFGTTVNIKRQKKKGKIEIEFFSNEDLDRILELLSERES
As for B3, in assay [3], the binding entry is “binds”.

B4: ParB(R105C, H133C, S278C)-HT in combination with E111Q (protein, UniProt P26497 1-282)
chain: MAKGLGKGINALFNQVDLSEETVEEIKIADLRPNPYQPRKHFDDEALAELKESVLQHGILQPLIVRKSLKGYDIVAGERRFRAAKLAGLDTVPAIVRELSEALMCEIALLQNLQREDLSPLEEAQAYDSLLKCLDLTQEQLAKRLGKSRPHIANHLRLLTLPENIQQLIAEGTLSMGHGRTLLGLKNKNKLEPLVQKVIAEQLNVRQLEQLIQQLNQNVPRETKKKEPVKDAVLKERESYLQNYFGTTVNIKRQKKKGKIEIEFFSNEDLDRILELLCERES
In the case of B4, the binding entry in [4] was “binds”.

B5: ParB(A102C, H133C) (natural protein, B. subtilis, UniProt P26497 1-282, looked up)
chain: MAKGLGKGINALFNQVDLSEETVEEIKIADLRPNPYQPRKHFDDEALAELKESVLQHGILQPLIVRKSLKGYDIVAGERRFRAAKLAGLDTVPAIVRELSECLMREIALLENLQREDLSPLEEAQAYDSLLKCLDLTQEQLAKRLGKSRPHIANHLRLLTLPENIQQLIAEGTLSMGHGRTLLGLKNKNKLEPLVQKVIAEQLNVRQLEQLIQQLNQNVPRETKKKEPVKDAVLKERESYLQNYFGTTVNIKRQKKKGKIEIEFFSNEDLDRILELLSERES
notes: ParB, B. subtilis, untagged recombinant protein with cysteines at the N-M interface; source: E. coli BL21-Gold (DE3), purified (ammonium sulfate, heparin, HiTrap SP, Superdex 200)
For the molecule B5, the binding result in [5] is on record as “binds”.

B6: ParB(R105C, H133C, S278C)-HT in combination with E78Q (protein, UniProt P26497 1-282)
chain: MAKGLGKGINALFNQVDLSEETVEEIKIADLRPNPYQPRKHFDDEALAELKESVLQHGILQPLIVRKSLKGYDIVAGQRRFRAAKLAGLDTVPAIVRELSEALMCEIALLENLQREDLSPLEEAQAYDSLLKCLDLTQEQLAKRLGKSRPHIANHLRLLTLPENIQQLIAEGTLSMGHGRTLLGLKNKNKLEPLVQKVIAEQLNVRQLEQLIQQLNQNVPRETKKKEPVKDAVLKERESYLQNYFGTTVNIKRQKKKGKIEIEFFSNEDLDRILELLCERES
Take B6: in [6], the binding entry is reported as “binds”.

B7: ParB(R105C, H133C, E111Q)-HT (protein, UniProt P26497 1-282)
chain: MAKGLGKGINALFNQVDLSEETVEEIKIADLRPNPYQPRKHFDDEALAELKESVLQHGILQPLIVRKSLKGYDIVAGERRFRAAKLAGLDTVPAIVRELSEALMCEIALLQNLQREDLSPLEEAQAYDSLLKCLDLTQEQLAKRLGKSRPHIANHLRLLTLPENIQQLIAEGTLSMGHGRTLLGLKNKNKLEPLVQKVIAEQLNVRQLEQLIQQLNQNVPRETKKKEPVKDAVLKERESYLQNYFGTTVNIKRQKKKGKIEIEFFSNEDLDRILELLSERES
B7: in assay [7], the binding entry was “binds”.

B8: ParB(T22C, E78Q)-HT (protein, UniProt P26497 1-282)
chain: MAKGLGKGINALFNQVDLSEECVEEIKIADLRPNPYQPRKHFDDEALAELKESVLQHGILQPLIVRKSLKGYDIVAGQRRFRAAKLAGLDTVPAIVRELSEALMREIALLENLQREDLSPLEEAQAYDSLLKHLDLTQEQLAKRLGKSRPHIANHLRLLTLPENIQQLIAEGTLSMGHGRTLLGLKNKNKLEPLVQKVIAEQLNVRQLEQLIQQLNQNVPRETKKKEPVKDAVLKERESYLQNYFGTTVNIKRQKKKGKIEIEFFSNEDLDRILELLSERES
Turning to B8, in [8], the binding result was “binds”.

B9: ParB(R105C, H133C) (natural protein, B. subtilis, UniProt P26497 1-282, looked up)
chain: MAKGLGKGINALFNQVDLSEETVEEIKIADLRPNPYQPRKHFDDEALAELKESVLQHGILQPLIVRKSLKGYDIVAGERRFRAAKLAGLDTVPAIVRELSEALMCEIALLENLQREDLSPLEEAQAYDSLLKCLDLTQEQLAKRLGKSRPHIANHLRLLTLPENIQQLIAEGTLSMGHGRTLLGLKNKNKLEPLVQKVIAEQLNVRQLEQLIQQLNQNVPRETKKKEPVKDAVLKERESYLQNYFGTTVNIKRQKKKGKIEIEFFSNEDLDRILELLSERES
notes: as for B5
As to B9, the binding entry in assay [9] is reported as “binds weakly”.

B10: ParB(T22C, E111Q)-HT (protein, UniProt P26497 1-282)
chain: MAKGLGKGINALFNQVDLSEECVEEIKIADLRPNPYQPRKHFDDEALAELKESVLQHGILQPLIVRKSLKGYDIVAGERRFRAAKLAGLDTVPAIVRELSEALMREIALLQNLQREDLSPLEEAQAYDSLLKHLDLTQEQLAKRLGKSRPHIANHLRLLTLPENIQQLIAEGTLSMGHGRTLLGLKNKNKLEPLVQKVIAEQLNVRQLEQLIQQLNQNVPRETKKKEPVKDAVLKERESYLQNYFGTTVNIKRQKKKGKIEIEFFSNEDLDRILELLSERES
Take B10: the binding result in assay [10] is “binds”.

B11: ParB(R105C, H133C, E78Q)-HT (protein, UniProt P26497 1-282)
chain: MAKGLGKGINALFNQVDLSEETVEEIKIADLRPNPYQPRKHFDDEALAELKESVLQHGILQPLIVRKSLKGYDIVAGQRRFRAAKLAGLDTVPAIVRELSEALMCEIALLENLQREDLSPLEEAQAYDSLLKCLDLTQEQLAKRLGKSRPHIANHLRLLTLPENIQQLIAEGTLSMGHGRTLLGLKNKNKLEPLVQKVIAEQLNVRQLEQLIQQLNQNVPRETKKKEPVKDAVLKERESYLQNYFGTTVNIKRQKKKGKIEIEFFSNEDLDRILELLSERES
Regarding B11, in assay [11], the binding result was “binds”.

The values above are taken from publication PMC8494293, “Relief of ParB autoinhibition by parS DNA catalysis and recycling of ParB by CTP hydrolysis promote bacterial centromere assembly” (Science Advances, 2021).
